According to publication PMC10130750, “The motor domain of the kinesin Kip2 promotes microtubule polymerization at microtubule tips” (The Journal of Cell Biology, 2023):
These are yes or no findings as the source states them, for the method shown. For part of these data: Binding can be weak; no strength is given. For part of these data: Where a sequence is shown, tags or fusion partners need not be part of it.

Assays:
[1] = molecular target: tubulin (free αβ-tubulin heterodimer) (not stated (bovine brain tubulin used for pelleting, pig brain tubulin for TIRF)); test: SEC-MALS; 25°C; 20 mM Hepes pH 7.4, 200 mM NaCl, 1 mM DTT; 4–8 mg/ml applied; MBP-Kip2(71-560)-mCherry or its P1^− mutant alone and mixed with tubulin; both purified
[2] = molecular target: tubulin (free αβ-tubulin heterodimer) (not stated (bovine brain tubulin used for pelleting, pig brain tubulin for TIRF)); test: SEC-MALS; 25°C; Kip2-NMD, tubulin and their mixture; 4–8 mg/ml applied; buffer of the mixture not told (Tris buffer named for Kip2-NMD, Hepes buffer for tubulin); both purified
[3] = molecular target: Taxol-stabilized microtubules (bovine brain tubulin) (bovine); test: co-sedimentation; microtubule-pelleting assay; Taxol-stabilized microtubules of bovine brain tubulin in BRB80, taxol–glycerol cushion, 174,500 g, 30 min, 25°C; Coomassie-stained SDS-PAGE of supernatant and pellet; both purified

B1: MBP-Kip2(71-560)-P1^−-mCherry (domain or fragment, S. cerevisiae, UniProt P28743 71-560, looked up)
chain: KSDPFLHPGRIRIRRSDSINNNSRKNDTYTGSITVTIRPKPRSVGTSRDHVGLKSPRYSQPRSNSHHGSNTFVRDPWFITNDKTIVHEEIGEFKFDHVFASHCTNLEVYERTSKPMIDKLLMGFNATIFAYGMTGSGKTFTMSGNEQELGLIPLSVSYLFTNIMEQSMNGDKKFDVIISYLEIYNERIYDLLESGLEESGSRISTPSRLYMSKSNSNGLGVELAIADDSQYGVKVIGLTERRCESSEELLRWIAVGDKSRKIGETDYNARSSRSHAIVLIRLTSTNVKNGTSRSSTLSLCDLAGSERATGQQERRKEGSFINKSLLALGTVISKLSADKMNSVGSNIPSPSASGSSSSSGNATNNGTSPSNHIPYRDSKLTRLLQPALSGDSIVTTICTVDTRNDAAAETMNTLRFASRAKNVALHVSKKSIISNGNNDGDKDRTIELLRRQLEEQRRMISELKNRSNIGEPLTKSSNESTYKDIKATGN
notes: Kip2 motor domain with a first helix of the coiled coil, S. cerevisiae, residues 71–560, patch 1 (Lys294, Arg296) substituted with alanines; Mixed monomers and dimers by SEC-MALS (192 kD); also called MBP-Kip2-MD-P1^−-mCherry; MBP-Kip2-MD-P1; not shown: MBP, N-terminal, kept; mCherry, C-terminal, kept
binding [1]: binds

B2: Kip2 non-motor domain (Kip2-NMD, residues 504–706) (domain or fragment, S. cerevisiae, UniProt P28743 504-706, looked up)
chain: SNGNNDGDKDRTIELLRRQLEEQRRMISELKNRSNIGEPLTKSSNESTYKDIKATGNDGDPNLALMRAENRVLKYKLENCEKLLDKDVVDLQDSEIMEIVEMLPFEVGTLLETKFQGLESQIRQYRKYTQKLEDKIMALEKSGHTAMSLTGCDGTEVIELQKMLERKDKMIEALQSAKRLRDRALKPLINTQQSPHPVVDNDK
notes: Kip2 non-motor domain (coiled coil and C-terminal tail), S. cerevisiae, residues 504–706; Dimer by SEC-MALS (45 kD); PreScission site between His tag and protein; also called NMD-Kip2; source: E. coli BL21 (DE3), purified (IMAC, SEC); not shown: His6, N-terminal, cleaved
binding [2]: no binding (tested: 4–8 mg/ml applied)
binding [3]: no binding
